Data reported in PubChem BioAssay AID662 (National Center for Advancing Translational Sciences (NCATS), 2007).
Values joined by “and” are separate entries in the source; they are usually repeats but may differ in a detail not shown here. Identical values can stand only once. The list shows a part of the results. These are further read-outs of the screen, such as a control signal, another cell line or another target. No call is given for them. Compounds called inactive in the main read-out are mostly missing here. The note in brackets gives the kind of curve behind each potency; many fits are weak.

experiment: Cell signaling CRE-BLA (Fsk stim); conditions: CHO CRE-bla reporter (cAMP response element driving beta-lactamase), forskolin EC10, beta-lactamase ratio; measured here: 460 nm blue channel
How it was run: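 Beta-lactamase reporter under a cAMP responsive element in CHO cells; compounds tested in titration series against EC10 NKH 477, 3 h at 37 °C. Read-out: CCF4 FRET ratio 460nm/530nm (excitation 405nm) giving %Activity, fitted to AC50.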

SMILES	AC50
Cn1c(=O)c(-c2ccc(Cl)cc2)nc2cnc(Oc3ccccc3)nc21	5.01 µM [rising, full curve]
OCCNCCCOc1cccc(Cl)c1Cl	0.0398 µM [rising, full curve, poor fit]
Cc1cc(C(F)(F)F)nc(SCc2ccc(C(=O)O)o2)n1	3.98 µM [rising, single point]
CCOC(=O)N1CCN(C(=O)c2ccc3nc4ccsc4c(=O)n3c2)CC1	7.94 µM [rising, partial curve]
O=C(NCc1ccco1)c1cc(-c2ccccc2)on1	5.01 µM [falling, full curve, poor fit]
CCOC(=O)c1ccccc1NC(=O)c1cccs1	12.6 µM [rising, partial curve]
O=C1C2C3C=CC(C3)C2C(=O)N1c1cccc2cccnc12 (centres undefined)	0.631 µM [rising, full curve]
Cc1cc(C)n2nc(SCn3nnc4ccccc4c3=O)nc2n1	12.6 µM [rising, partial curve]
CCNc1ncc2nc(-c3ccc(Cl)cc3)c(=O)n(Cc3cccc(OC)c3)c2n1	0.126 µM [rising, full curve]
COc1ccc(-n2nc(C(=O)NCc3ccco3)c3c4ccccc4n(C)c3c2=O)cc1	1.26 µM [rising, full curve]
Cc1noc(C)c1-c1nc(NC2CC2)c2ccccc2n1	3.98 µM [rising, partial curve]
c1ccc2[nH]c(NCCCN3CCOCC3)nc2c1	5.01 µM [falling, single point]
CCNc1ncc2nc(-c3cccc(C#N)c3)c(=O)n(C)c2n1	2 µM [rising, full curve]
Cc1ccc(-n2c(SCc3nnc4n3CCC4)nnc2-c2ccccc2)cc1	25.1 µM [rising, single point]
Cc1cc(=O)c2cc(Cl)ccc2[nH]1	0.158 µM [falling, full curve]
CN(C)c1ccc(-c2nc(Nc3ccncc3)c3ccccc3n2)cc1	3.98 µM [rising, partial curve]
COc1ccccc1C(O)P(=O)(OC(C)C)c1ccc(N(C)C)cc1 (centres undefined)	31.6 µM [falling, single point]
O=C(CN1CCCCC1)Nc1ccc(S(=O)(=O)NC2CCCCC2)cc1	7.94 µM [rising, partial curve]
CCOCCCNC(=O)c1ccc2c(c1)ncn2C1CCCC1	2.51 µM [rising, single point]
CC1=C(C(=O)Nc2ccccc2)C(c2ccco2)C(C#N)=C(SCC(=O)OC(C)C)N1 (centres undefined)	25.1 µM [falling, single point]
COc1ccc2nc3c(cc2c1)Cc1ccccc1-3	25.1 µM [rising, single point]
Nc1nc(CSc2nc3ccccc3[nH]2)nc(N2CCOCC2)n1	12.6 µM [rising, single point]
Cc1cccc(S(=O)(=O)C(C#N)c2nc3ccccc3nc2N2CCOCC2)c1 (centres undefined)	20 µM [rising, single point]

SMILES	AC50
CCOc1ccc2nc(NC(=O)Nc3cccs3)sc2c1	25.1 µM [falling, single point]
c1ccc(N=P(c2nc3ccccc3o2)(N2CCOCC2)N2CCOCC2)cc1	5.01 µM [falling, single point]
COC(=O)C(C)NC(=O)C12CC3CC(CC(C3)C1)C2 (centres undefined)	1.26 µM [falling, partial curve]
Cc1nc(-c2cccc(N)c2)cs1	12.6 µM [rising, single point]
COc1ccc(Oc2ncc3nc(-c4ccccc4)c(=O)n(Cc4cccs4)c3n2)cc1	12.6 µM [rising, partial curve]
Cc1cc(C(F)(F)F)nc(NCc2cccnc2)n1	10 µM [rising, single point]
CCN1CCCC1CNC(=O)c1cc2c(=O)n(C)c3ccccc3c2n1C (centres undefined)	6.31 µM [rising, partial curve]
CC1=C(C(=O)Nc2ccccc2C)C(c2ccc(C)o2)C2=C(CCCC2=O)N1 (centres undefined)	10 µM [falling, single point]
COc1cc(C(=O)OCCCN2CCCN(CCCOC(=O)c3cc(OC)c(OC)c(OC)c3)CC2)cc(OC)c1OC	31.6 µM [rising, single point] and 10 µM [rising, partial curve, poor fit]
COCCn1c(C)cc(C(=O)CSc2nncn2-c2ccccc2)c1C	0.398 µM [falling, partial curve]
COc1ccc(C(=O)N2CCCCC2)cc1S(=O)(=O)Nc1ccccc1	3.16 µM [falling, partial curve, poor fit]
COc1ccc(-n2c(=O)c(-c3cc(F)cc(F)c3)nc3cnc(N(C)C)nc32)cc1	3.16 µM [rising, partial curve]
COc1ccc(OC)c2[nH]c(=O)c(CCNC(C)=O)cc12	3.98 µM [falling, full curve]
COc1ccc(CN2C(=O)c3cccnc3C2Nc2cc(Cl)c(OC)cc2OC)cc1 (centres undefined)	0.794 µM [rising, full curve]
COC(=O)c1ccc(CSc2ccc3nnc(-c4cccc(F)c4)n3n2)o1	3.98 µM [rising, partial curve]
O=C(CSc1nnc(-c2ccccc2)o1)c1nnc(-c2ccccc2)o1	5.01 µM [falling, single point]
O=C(O)c1ccc(SSc2ccc(C(=O)O)cn2)nc1	5.01 µM [rising, single point]
O=C1c2oc3ccccc3c(=O)c2C(c2ccc(Br)cc2)N1c1ncccn1 (centres undefined)	3.16 µM [falling, partial curve]
O=C1Nc2ccccc2C12Nc1ccccc1S2 (centres undefined)	3.16 µM [falling, full curve, poor fit]
Cc1cc(C)c2c(N)c(S(=O)(=O)c3ccccc3)sc2n1	7.94 µM [rising, partial curve]
CCCn1c(C)nc2c(N3CCCN(Cc4ccccc4)CC3)nc(C)nc21	12.6 µM [rising, partial curve]
Cc1sc2ncnc(SC(C)C#N)c2c1C (centres undefined)	5.01 µM [rising, partial curve]
COc1ccc(OCC(O)Cn2c(Br)nc3c2c(=O)[nH]c(=O)n3C)cc1 (centres undefined)	12.6 µM [rising, partial curve]

SMILES	AC50
CC1=C(C(=O)OCc2ccc3c(c2)OCO3)C(c2ccccc2)NC(=O)N1 (centres undefined)	12.6 µM [falling, partial curve]
COc1cccc(Cn2c(=O)c(-c3cccs3)nc3cnc(N4CCN(C)CC4)nc32)c1	1.26 µM [rising, full curve]
CCCn1c(SCC(=O)NCc2cccs2)nc2c1c(=O)n(C)c(=O)n2C	20 µM [rising, single point]
CNS(=O)(=O)c1ccc(NC(=O)C(CCSC)NC(N)=O)cc1 (centres undefined)	1.58 µM [falling, single point]
CCC(C)Sc1nc2c(cnn2-c2ccc(C)c(C)c2)c(=O)[nH]1 (centres undefined)	2.51 µM [rising, full curve]
COc1cc2c(C#N)c(N3CCCCC3)nc(N)c2c(N)n1	12.6 µM [rising, partial curve]
CC(C)(C)NC(=O)NC(=O)COC(=O)c1ccco1	0.126 µM [falling, partial curve, poor fit]
O=C(CSc1nnc(Cn2c(=O)sc3ccccc32)n1CCc1ccccc1)N1CCOCC1	25.1 µM [rising, single point]
Cc1cccc(Nc2ncnc3nc[nH]c23)c1	1.26 µM [rising, full curve]
O=C1C(C=NCCCn2ccnc2)=C(O)c2ccccc21	5.01 µM [falling, single point]
CCOc1ccc(C(=O)CCNC(Cc2cnc[nH]2)C(=O)O)cc1 (centres undefined)	0.794 µM [falling, partial curve, poor fit]
COc1ccc(OC)c(NS(=O)(=O)c2ccc3c(c2)CCC(=O)N3)c1	0.0631 µM [rising, full curve, poor fit]
CCOC(=O)c1ccccc1NC(=O)Cn1cnc2c(cnn2-c2ccc(OC)cc2)c1=O	25.1 µM [falling, single point]
CCCn1nc(C(=O)Nc2cccc(C(=O)OC)c2)c2ccccc2c1=O	10 µM [rising, partial curve]
COC(=O)c1ccc2c(=O)n(CCCCCC(=O)N3CCN(c4ccccc4)CC3)c(=O)[nH]c2c1	6.31 µM [falling, partial curve, poor fit]
O=C(CC1(O)C(=O)Nc2cc(Cl)cc(Cl)c21)c1ccccc1O (centres undefined)	3.98 µM [falling, full curve, poor fit]
c1coc(-c2nc3ccccc3nc2-c2ccco2)c1	12.6 µM [rising, partial curve]
Cc1cc2c3nonc3ccc2n1C	20 µM [rising, single point]
CCCCNC(=O)C(C#N)c1nc2ccccc2nc1N1CCCC1 (centres undefined)	3.98 µM [rising, partial curve]
COc1cccc(C(=O)OCn2nnc3ccccc3c2=O)c1	15.8 µM [rising, single point]
COc1cc2nc(COc3ccc(C#N)cc3)n(CC#N)c(=O)c2cc1OC	10 µM [rising, partial curve]
CC(Oc1ccccc1)C(=O)Nc1ccc(C(N)=O)cc1 (centres undefined)	0.00501 µM [falling, full curve, poor fit]
Clc1ccc(Cl)c2sc(N3CCOCC3)nc12	0.316 µM [rising, full curve, poor fit]
